From PubChem BioAssay AID2685 (National Center for Advancing Translational Sciences (NCATS), 2010)
This is one part of the list. Shown are side measurements of this screen, not its main read-out; they come without a call. Most of these compounds were active or inconclusive in the main read-out, so they are no random draw. The note in brackets gives the kind of curve behind each potency; many fits are weak.

Assay: qHTS Assay for Lipid Storage Modulators in Drosophila S3 Cells;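 as to cell number change: cells counted by Cell Tracker Red CMTPX staining in the red channel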
Conditions: BODIPY lipid droplet fluorescence, 18-24 h; for cell number change: measured here: cell count max response, cells fed with added oleic acid
In short: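 Drosophila S3 cells loaded with oleic acid (400 uM, as added) and compounds at several concentrations; lipid droplets imaged by 488-nm laser-scanning cytometry, 500–530 nm intensity and object ratio to cell channel. Percent activity normalized to 20 uM Triacsin C.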

[1] = measured here: lipid fluorescence (Fed channel) AC50, cells fed with added oleic acid
[2] = measured here: cell number channel AC50, cells fed with added oleic acid

Row | Structure (SMILES) | cell number change [%] | AC50 [1] | AC50 [2]
1 | O=C(NCc1cc(C(F)(F)F)cc(C(F)(F)F)c1)C1CC(c2ccccc2[N+](=O)[O-])=NO1 (centres undefined) | -13.5 | 1.03 µM [falling, full curve, poor fit] | –
2 | CCOC(=O)c1c(S(=O)(=O)NCC(=O)N2CCN(c3ccccc3)CC2)c(C)n(C)c1C | 28.7 | 7.31 µM [rising, partial curve] | –
3 | CCOC(=O)C(C)(C)NS(=O)(=O)c1ccc(Cl)c([N+](=O)[O-])c1 | – | 14.6 µM [falling, partial curve] | –
4 | CN(C)CCCN1C(=O)C(O)=C(C(=O)c2cc3ccccc3o2)C1c1ccccc1 (centres undefined) | -33.5 | 0.231 µM [falling, full curve, poor fit] | 29.1 µM [falling, single point]
5 | COCc1cc(C)nc2sc(C(=O)OC(C)C)c(N)c12 | 1.26 | 1.64 µM [rising, full curve] | –
6 | Cc1cc(C(=O)COC(=O)c2ccccc2Br)c(C)n1CC1CCCO1 (centres undefined) | 18.6 | 10.3 µM [rising, partial curve, poor fit] | –
7 | CC(C)(C)C(=O)NCc1ccc(C(=O)CN2C(=O)NC3(CCCC3)C2=O)s1 | – | 18.4 µM [falling, single point] | 0.058 µM [falling, full curve, poor fit]
8 | CCC(C)NC(=O)CN(c1ccc(OC)cc1)S(=O)(=O)c1ccc(NC(C)=O)cc1 (centres undefined) | 3.67 | – | –
9 | CCOc1cc(/C=N/Nc2cc(C)nc(-n3nc(C)cc3C)n2)ccc1O | -33.8 | 32.6 µM [falling, single point] | 18.4 µM [falling, single point]
10 | Cc1nn2c(=O)cc(CSc3nc4ccccc4[nH]3)nc2s1 | 3.03 | 0.259 µM [rising, full curve, poor fit] | –
11 | CC(=O)Nc1ccc(-c2nc3cc(Cl)ccc3o2)cc1 | -9.67 | 0.58 µM [rising, single point] | –
12 | CCc1nc(SCC(=O)Nc2nnc(CC)s2)c2c(=O)n(C)c(=O)n(C)c2n1 | -26.3 | 29.1 µM [falling, single point] | –
13 | Nc1nc(Br)c2c(F)cccc2c1-c1ccc(Cl)cc1 | -0.287 | – | –
14 | O=C(CN(c1ccc([N+](=O)[O-])cc1)S(=O)(=O)c1ccccc1)N1CCCCC1 | 13.5 | – | 4.11 µM [rising, partial curve, poor fit]
15 | CC1Cc2ccccc2N1C(=O)Cn1nc(C(=O)O)c2ccccc2c1=O (centres undefined) | 0.144 | – | –
16 | CC(OC(=O)c1cc2sccc2n1C)C(=O)NCc1ccc2c(c1)OCO2 (centres undefined) | -53.4 | 29.1 µM [falling, single point] | 23.1 µM [falling, single point]
17 | O=C(NCc1ccccn1)C1CC(c2ccc(Cl)c(Cl)c2)=NO1 (centres undefined) | 118 | – | –
18 | O=C(CSc1nccc(=O)[nH]1)Nc1cccc2ccccc12 | -11.5 | 1.16 µM [rising, full curve] | –
19 | COc1ccc(CC(=O)n2nc(-c3ccc(Cl)cc3)nc2NCc2ccco2)cc1 | 63.6 | – | –
20 | COc1ccc(N2CCSC2C(=O)NN)cc1 (centres undefined) | 7.18 | 5.17 µM [falling, single point] | 4.11 µM [falling, single point]
21 | CCOc1ccc(/C=C2\SC(=S)N(CC(=O)NCCCN3CCOCC3)C2=O)cc1 | 17.9 | – | –
22 | O=C(NCCC1=CCCCC1)c1ccc2c(c1)N(Cc1ccccc1)C(=O)CS2 | -15.6 | 1.3 µM [rising, full curve, poor fit] | –
23 | O=C(Nc1ccnn1C1CCN(Cc2ccc(CO)o2)CC1)c1ccc2c(c1)OCO2 | 17.3 | – | –
24 | O=C(CSc1nnc(SCc2ccc(Cl)cc2)s1)N/N=C/c1ccc(C(=O)O)cc1 | -29.9 | 1.3 µM [falling, full curve] | 4.11 µM [falling, full curve, poor fit]
25 | CCCc1nc2nc(C)c(NS(=O)(=O)c3ccc(Cl)cc3)c(=O)n2[nH]1 | 2.38 | 6.51 µM [rising, partial curve, poor fit] | –
26 | COc1ccc(C2c3c(ncn(CCN4CCOCC4)c3=N)Oc3ccc4ccccc4c32)cc1OC (centres undefined) | -33.2 | – | 10.3 µM [falling, partial curve, poor fit]
27 | CC1OC(OC2C(Oc3c(-c4ccc(O)cc4)oc4cc(O)cc(O)c4c3=O)OC(COC3O[C@@H](C)[C@H](O)[C@@H](O)C3O)C(O)C2O)C(O)C(O)C1O (some centres undefined) | -47.5 | – | 29.1 µM [falling, single point]
28 | COc1ccc(NC(C)C(=O)N2CCN(Cc3ccccc3)CC2)cc1 (centres undefined) | 1.59 | – | –
29 | O=C(N=C1SC2CS(=O)(=O)CC2N1c1ccccc1C(F)(F)F)C1CCCO1 (centres undefined) | -12.3 | 6.51 µM [falling, single point] | –

Some of these compounds in order of number of heavy atoms, smallest number first.
Row | Structure (SMILES) | cell number change [%] | AC50 [1] | AC50 [2]
11 | CC(=O)Nc1ccc(-c2nc3cc(Cl)ccc3o2)cc1 | -9.67 | 0.58 µM [rising, single point] | –
25 | CCCc1nc2nc(C)c(NS(=O)(=O)c3ccc(Cl)cc3)c(=O)n2[nH]1 | 2.38 | 6.51 µM [rising, partial curve, poor fit] | –
7 | CC(C)(C)C(=O)NCc1ccc(C(=O)CN2C(=O)NC3(CCCC3)C2=O)s1 | – | 18.4 µM [falling, single point] | 0.058 µM [falling, full curve, poor fit]
